Construct, isoform or probe ends are uncertain for at least one entry.
Molecular target: p65-Halo-FLAG (wild type, JF549-labeled) (UniProt Q04206)
Assay: EMSA
Settings: 0.5 uM dsDNA, 0.1, 0.3, 0.6 ug protein in 20 uL, 12.5 mM Mg2+, 25 mM HEPES pH 7.6, 0.1 mM EDTA, 12.5 mM MgCl2, 100 mM KCl, 0.01% NP-40 alternative, 10% …, 4 C 60 min then RT 10 min, 1% agarose, 0.5x TBE, recombinant protein, protein details: Halo, label: 5' Atto647N on sense strand

Chains of the proteins cited; added tags and fusions are not shown.
UniProt Q04206, whole entry: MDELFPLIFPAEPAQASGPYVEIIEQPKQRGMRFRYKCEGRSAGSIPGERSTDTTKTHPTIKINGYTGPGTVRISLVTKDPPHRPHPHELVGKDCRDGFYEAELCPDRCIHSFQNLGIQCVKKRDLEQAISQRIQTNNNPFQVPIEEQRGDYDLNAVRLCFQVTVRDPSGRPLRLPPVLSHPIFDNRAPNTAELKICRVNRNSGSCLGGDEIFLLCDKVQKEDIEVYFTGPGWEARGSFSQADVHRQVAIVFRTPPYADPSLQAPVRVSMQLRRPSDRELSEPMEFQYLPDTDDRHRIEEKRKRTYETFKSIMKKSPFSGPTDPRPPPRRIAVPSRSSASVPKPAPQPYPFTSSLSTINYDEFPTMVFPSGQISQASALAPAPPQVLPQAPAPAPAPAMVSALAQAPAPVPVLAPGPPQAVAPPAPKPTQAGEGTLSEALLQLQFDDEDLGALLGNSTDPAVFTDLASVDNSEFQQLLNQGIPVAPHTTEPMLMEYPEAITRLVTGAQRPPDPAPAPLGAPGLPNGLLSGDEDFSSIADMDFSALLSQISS

AGTTGAGGGGACTTTCCCAGGC (double strand) [ds-kB-oligo (p65_kB consensus)]
binding result: binds

From paper PMC6353211
